# Primary screen of a compound library

Chains of the proteins cited; added tags and fusions are not shown.
UniProt E9BF75, entry or part of it: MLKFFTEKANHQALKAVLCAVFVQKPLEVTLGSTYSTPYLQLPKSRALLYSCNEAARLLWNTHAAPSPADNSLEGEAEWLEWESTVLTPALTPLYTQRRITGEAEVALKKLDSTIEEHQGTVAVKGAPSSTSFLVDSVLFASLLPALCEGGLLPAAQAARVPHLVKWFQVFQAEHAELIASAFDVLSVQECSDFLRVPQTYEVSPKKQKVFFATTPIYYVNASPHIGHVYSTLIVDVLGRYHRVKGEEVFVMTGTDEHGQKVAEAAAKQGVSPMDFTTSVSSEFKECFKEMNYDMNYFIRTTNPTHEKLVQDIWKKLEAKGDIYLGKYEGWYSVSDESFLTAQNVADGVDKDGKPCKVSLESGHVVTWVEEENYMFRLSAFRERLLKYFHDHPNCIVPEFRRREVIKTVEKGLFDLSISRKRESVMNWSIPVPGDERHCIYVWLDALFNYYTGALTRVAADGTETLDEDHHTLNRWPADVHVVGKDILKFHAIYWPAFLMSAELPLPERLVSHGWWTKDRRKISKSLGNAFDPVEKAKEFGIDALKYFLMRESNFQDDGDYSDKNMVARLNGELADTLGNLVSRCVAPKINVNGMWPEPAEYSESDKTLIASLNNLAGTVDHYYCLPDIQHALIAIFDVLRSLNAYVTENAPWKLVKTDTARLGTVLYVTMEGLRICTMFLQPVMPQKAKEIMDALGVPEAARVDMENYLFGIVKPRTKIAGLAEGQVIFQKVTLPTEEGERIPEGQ

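Methionyl-tRNA synthetase (putative), Leishmania donovani (UniProt E9BF75). Primary screen of methionyl-tRNA synthetase; the read-out is not stated. The test concentration is not given. The values are filed as inhibition. About 68,000 compounds were tested under these conditions; 0.035% (about 24) showed 50% or more at least once.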

All values are in %. The controls that fix the scale are not given in the record; negative values are as filed. The compounds are a random part of those screened.

{"structure": "Cc1cc(NC(=O)C(c2cccc(F)c2)N2CCOCC2)sn1", "stereo": "configuration not stated", "Inhibition": -7.427}
{"structure": "CCN(C)c1ncnc2c1CCN(C(=O)COC)CC2", "Inhibition": 6.989}
{"structure": "O=C(NCCc1c[nH]cn1)C1CCCN(Cc2ccco2)C1", "stereo": "configuration not stated", "Inhibition": 2.793}
{"structure": "CC(C)(CO)Nc1c(NCc2ccccc2)c(=O)c1=O", "Inhibition": 16.91}
{"structure": "COc1ccc(CN2CC[C@H](NC(C)=O)[C@@H](O)CC2)c(OC)c1", "Inhibition": 8.562}
{"structure": "COCCN(CCOC)C(=O)c1cnn(C)c1C", "Inhibition": 4.237}
{"structure": "COCCOc1ccc(CNc2cnc3ccccc3n2)cn1", "Inhibition": 12.77}
{"structure": "Cc1cc(CN(C)C(=O)Nc2ccccc2C)no1", "Inhibition": 9.756}
{"structure": "CCn1cnnc1CCNc1nc(C)cc(C)c1C#N", "Inhibition": 13.97}
{"structure": "CC(C)OCCCNC(=O)[C@@]12CNC[C@@H]1CN(S(C)(=O)=O)C2", "Inhibition": 4.267}
{"structure": "Cc1c(CNC(=O)NCc2cccc(-n3cncn3)c2)cnn1C", "Inhibition": 10.68}
{"structure": "CN1CC(Oc2ccccc2)=NC(SCC(=O)Nc2ccc(Cl)cc2)=N1", "Inhibition": 9.023}
{"structure": "CN1CC[C@]2(CN(Cc3nccs3)C[C@H]2c2ccccc2)C1=O", "Inhibition": 13.14}
{"structure": "CC1(C(=O)N2CCN(c3cnccn3)CC2)CNCCO1", "stereo": "configuration not stated", "Inhibition": 1.869}
{"structure": "COCCCNC(=O)c1ccccc1S(C)(=O)=O", "Inhibition": -0.2208}
{"structure": "O=C(c1cn(-c2ccccc2C(F)(F)F)nn1)N1CCSCC1", "Inhibition": 18.68}
{"structure": "Cc1ccc(C)c(OCCN(C)C(=O)CCc2cn[nH]c2)c1", "Inhibition": 9.779}
{"structure": "CCN1C[C@H]2CCN(C(=O)NC3CCCC3)CC[C@H]2S1(=O)=O", "Inhibition": 2.075}
{"structure": "COc1c(CNC2CCN(c3ncccn3)CC2)c(C)nn1C", "Inhibition": 6.983}
{"structure": "Cn1cccc1C(=O)Nc1cc(F)ccc1OCC1CCCO1", "stereo": "configuration not stated", "Inhibition": -1.215}
{"structure": "COC(CNC(=O)C1CC1)c1ccc(C)s1", "stereo": "configuration not stated", "Inhibition": 3.976}
{"structure": "Cc1ccc(C(NC(=O)C2CC2)c2cccc(S(C)(=O)=O)c2)cc1", "stereo": "configuration not stated", "Inhibition": 16.52}
{"structure": "CCc1noc(C(C)N2CCCN(Cc3noc(C4CC4)n3)CC2)n1", "stereo": "configuration not stated", "Inhibition": 13.24}
{"structure": "CCCn1ncc(C(=O)N2CCN(C3CCSCC3)CC2)c1C", "Inhibition": 8.904}
{"structure": "OCCN1CCN(Cc2cc(Cl)cc3cccnc23)CC1", "Inhibition": 10.57}
{"structure": "CCc1nccn1C1CCCN(C(=O)Cc2n[nH]c3ccccc23)C1", "stereo": "configuration not stated", "Inhibition": 15.28}
{"structure": "CC1(C)CN(Cc2c[nH]c(CC3CCCC3)n2)CC[C@]1(C)O", "Inhibition": 6.738}
{"structure": "CN1CCCCC1c1ccc(-n2ccnc2)nc1", "stereo": "configuration not stated", "Inhibition": 15.22}
{"structure": "CCOCC1CN(Cc2cnn(C)c2)Cc2nn(C)cc21", "stereo": "configuration not stated", "Inhibition": 5.579}
{"structure": "Cn1cc(CN2C[C@H]3CCC[C@@]3(COc3cccnc3)C2)cn1", "Inhibition": 19.22}
{"structure": "O=C(NCCc1ccc(F)cc1)NCC(O)c1cccc(F)c1", "stereo": "configuration not stated", "Inhibition": 8.547}
{"structure": "CC(C(=O)NCc1ccnc(N2CCCC2)c1)n1cncn1", "stereo": "configuration not stated", "Inhibition": 9.184}
{"structure": "COCC(=O)N1C[C@@H]2OCCN(Cc3c(C)noc3C)[C@@H]2C1", "Inhibition": 6.438}
{"structure": "Cn1ccnc1-c1nc2cc(S(=O)(=O)N3CCCC3)ccc2n1C", "Inhibition": 7.396}
{"structure": "Cc1nn(C)c(N2CCOCC2)c1CNC1CCc2cc(F)ccc21", "stereo": "configuration not stated", "Inhibition": 6.62}
{"structure": "Cc1nc(NC2CCCCC2)cc(C2CCCNC2)n1", "stereo": "configuration not stated", "Inhibition": -2.812}
{"structure": "CCc1nnc(Nc2cccc(C3CCCN(CC(C)(C)C)C3)n2)s1", "stereo": "configuration not stated", "Inhibition": 12.94}
{"structure": "Clc1cccc2c3c([nH]c12)CCN(Cc1cc2n(n1)CCNC2)C3", "Inhibition": 2.941}
{"structure": "CC1(C)Cc2cc(-c3cncn3CCNC3CCS(=O)(=O)C3)ccc2O1", "stereo": "configuration not stated", "Inhibition": 14.7}
{"structure": "O=C(c1csc(-c2ncccn2)n1)N1CCN(C2CCCC2)CC1", "Inhibition": 15.04}
{"structure": "CS(=O)(=O)C1=C(O)C(=O)N(c2ccccc2)C1c1ccccc1", "stereo": "configuration not stated", "Inhibition": 11.55}
{"structure": "COc1ccc(Br)c(C(=O)NCC2CC2)c1", "Inhibition": -3.183}
{"structure": "COC(=O)CC(NC(=O)c1ccc(OC)cc1OC)c1cccs1", "stereo": "configuration not stated", "Inhibition": 16.33}
{"structure": "CC1NC(=O)COC12CCN(C(=O)Cc1ccsc1)CC2", "stereo": "configuration not stated", "Inhibition": 11.23}
{"structure": "N#Cc1cccc(Oc2ccc(CN3CCCC3)cc2Cl)n1", "Inhibition": 12.5}
{"structure": "CC(C)S(=O)(=O)C(C)C(=O)NCc1ccccc1OCc1ccccc1", "stereo": "configuration not stated", "Inhibition": 22.06}
{"structure": "O=S(=O)(c1cccnc1)N1CCN(Cc2nc(-c3ccco3)cs2)CC1", "Inhibition": 7.759}
{"structure": "CCN(CC)Cc1cc(C(=O)N2CCCC(CC)(C(=O)O)C2)c(C)o1", "stereo": "configuration not stated", "Inhibition": 1.393}
{"structure": "CN(CCc1ccc2c(c1)CCO2)CC1CCS(=O)(=O)C1", "stereo": "configuration not stated", "Inhibition": 7.102}
{"structure": "CCN(CC)CCNC(=O)c1cc(OC)c2ccoc2c1", "Inhibition": 10.5}
{"structure": "CSCC(CCO)NC(=O)Nc1cccc(Br)c1", "stereo": "configuration not stated", "Inhibition": 14.29}
{"structure": "Cn1cccc1CN1CCC2(CC1)CN(c1ccccc1)C(=O)CO2", "Inhibition": 20.86}
{"structure": "N#Cc1c(F)cccc1N1CCC(C(=O)Nc2nccs2)CC1", "Inhibition": 17.18}
{"structure": "Cn1ccnc1CN1CCCC1c1noc(C2CC2)n1", "stereo": "configuration not stated", "Inhibition": 3.497}
{"structure": "Cc1cc(CN2CCCC(CNC(=O)Cn3cccn3)C2)oc1C", "stereo": "configuration not stated", "Inhibition": 17.37}

For reference, 4 entries once more:

{"structure": "Cn1cc(CN2C[C@H]3CCC[C@@]3(COc3cccnc3)C2)cn1", "Inhibition": 19.22}
{"structure": "COCC(=O)N1C[C@@H]2OCCN(Cc3c(C)noc3C)[C@@H]2C1", "Inhibition": 6.438}
{"structure": "CC1(C(=O)N2CCN(c3cnccn3)CC2)CNCCO1", "stereo": "configuration not stated", "Inhibition": 1.869}
{"structure": "CCN1C[C@H]2CCN(C(=O)NC3CCCC3)CC[C@H]2S1(=O)=O", "Inhibition": 2.075}

Source: ChEMBL document CHEMBL3988442, “University of Dundee, Small-Polar-MMV Screening Library” (2021).